Laboratory results taken from PMC5505151, “A proteomic analysis of LRRK2 binding partners reveals interactions with multiple signaling components of the WNT/PCP pathway” (Molecular Neurodegeneration, 2017).

Protein sequences, listed by entry. Tags and fused reporters are not part of them.
UniProt Q5S007: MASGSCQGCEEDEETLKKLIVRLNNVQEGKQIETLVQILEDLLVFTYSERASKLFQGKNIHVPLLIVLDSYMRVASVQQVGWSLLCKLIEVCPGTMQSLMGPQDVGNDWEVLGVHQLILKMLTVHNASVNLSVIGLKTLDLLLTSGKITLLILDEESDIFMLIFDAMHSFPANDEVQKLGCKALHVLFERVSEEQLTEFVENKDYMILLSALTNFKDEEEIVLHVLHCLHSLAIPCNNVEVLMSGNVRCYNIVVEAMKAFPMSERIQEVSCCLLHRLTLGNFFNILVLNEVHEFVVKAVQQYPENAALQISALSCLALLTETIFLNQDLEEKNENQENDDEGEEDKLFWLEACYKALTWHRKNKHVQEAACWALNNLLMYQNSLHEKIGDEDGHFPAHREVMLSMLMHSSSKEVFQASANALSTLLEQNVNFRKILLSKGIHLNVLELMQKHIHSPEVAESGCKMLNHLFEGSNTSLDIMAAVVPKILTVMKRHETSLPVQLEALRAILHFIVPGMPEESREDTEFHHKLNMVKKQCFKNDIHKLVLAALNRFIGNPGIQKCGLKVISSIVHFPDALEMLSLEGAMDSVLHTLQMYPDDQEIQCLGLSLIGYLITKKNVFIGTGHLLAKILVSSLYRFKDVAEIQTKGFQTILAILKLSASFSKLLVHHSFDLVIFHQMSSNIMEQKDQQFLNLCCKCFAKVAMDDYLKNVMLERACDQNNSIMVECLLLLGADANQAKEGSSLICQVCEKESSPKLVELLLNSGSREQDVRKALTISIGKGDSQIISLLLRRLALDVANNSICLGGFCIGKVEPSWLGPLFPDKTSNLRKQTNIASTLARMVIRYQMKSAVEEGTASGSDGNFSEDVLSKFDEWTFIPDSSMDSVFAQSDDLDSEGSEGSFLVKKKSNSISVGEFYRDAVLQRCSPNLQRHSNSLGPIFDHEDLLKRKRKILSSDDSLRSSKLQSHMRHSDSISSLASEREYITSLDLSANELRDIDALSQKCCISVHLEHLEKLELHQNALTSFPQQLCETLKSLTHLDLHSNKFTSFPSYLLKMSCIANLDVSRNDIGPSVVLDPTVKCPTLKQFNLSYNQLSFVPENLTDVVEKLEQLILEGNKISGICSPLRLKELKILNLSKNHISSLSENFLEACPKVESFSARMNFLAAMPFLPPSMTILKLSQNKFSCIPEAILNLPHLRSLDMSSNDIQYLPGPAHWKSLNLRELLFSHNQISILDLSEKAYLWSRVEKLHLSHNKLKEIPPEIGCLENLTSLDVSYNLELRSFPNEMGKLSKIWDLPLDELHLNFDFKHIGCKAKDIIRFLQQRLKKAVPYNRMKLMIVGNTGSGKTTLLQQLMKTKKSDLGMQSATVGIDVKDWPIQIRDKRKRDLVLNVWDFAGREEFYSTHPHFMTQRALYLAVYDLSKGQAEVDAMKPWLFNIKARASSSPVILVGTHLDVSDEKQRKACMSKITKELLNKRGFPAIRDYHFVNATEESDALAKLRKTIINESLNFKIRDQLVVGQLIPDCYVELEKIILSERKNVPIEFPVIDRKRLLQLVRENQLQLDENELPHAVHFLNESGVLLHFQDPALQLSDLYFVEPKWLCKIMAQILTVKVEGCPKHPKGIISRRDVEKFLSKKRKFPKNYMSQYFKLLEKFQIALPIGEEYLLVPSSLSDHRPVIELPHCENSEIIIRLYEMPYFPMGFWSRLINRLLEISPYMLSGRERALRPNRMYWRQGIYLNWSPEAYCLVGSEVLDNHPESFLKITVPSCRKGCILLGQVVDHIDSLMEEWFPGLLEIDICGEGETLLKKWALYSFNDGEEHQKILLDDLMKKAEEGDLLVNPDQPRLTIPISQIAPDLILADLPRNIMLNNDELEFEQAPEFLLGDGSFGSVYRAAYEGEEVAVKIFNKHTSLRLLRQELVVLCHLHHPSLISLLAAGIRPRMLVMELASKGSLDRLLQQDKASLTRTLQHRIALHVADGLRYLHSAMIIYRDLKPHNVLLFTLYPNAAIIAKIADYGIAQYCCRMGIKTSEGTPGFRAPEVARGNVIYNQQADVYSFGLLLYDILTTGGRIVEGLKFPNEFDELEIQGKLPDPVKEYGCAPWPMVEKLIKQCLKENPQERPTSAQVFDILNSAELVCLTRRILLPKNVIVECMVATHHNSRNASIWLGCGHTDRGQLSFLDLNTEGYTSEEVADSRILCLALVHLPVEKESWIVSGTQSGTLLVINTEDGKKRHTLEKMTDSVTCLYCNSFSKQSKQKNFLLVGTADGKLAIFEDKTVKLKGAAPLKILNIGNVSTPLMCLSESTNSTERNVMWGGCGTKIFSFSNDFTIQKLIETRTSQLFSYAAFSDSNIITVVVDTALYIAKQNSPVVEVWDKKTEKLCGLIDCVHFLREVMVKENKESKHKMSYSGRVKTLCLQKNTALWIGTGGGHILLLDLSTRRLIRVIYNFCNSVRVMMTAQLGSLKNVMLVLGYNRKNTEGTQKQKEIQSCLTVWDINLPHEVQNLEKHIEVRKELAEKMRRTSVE
UniProt Q9Z0G0: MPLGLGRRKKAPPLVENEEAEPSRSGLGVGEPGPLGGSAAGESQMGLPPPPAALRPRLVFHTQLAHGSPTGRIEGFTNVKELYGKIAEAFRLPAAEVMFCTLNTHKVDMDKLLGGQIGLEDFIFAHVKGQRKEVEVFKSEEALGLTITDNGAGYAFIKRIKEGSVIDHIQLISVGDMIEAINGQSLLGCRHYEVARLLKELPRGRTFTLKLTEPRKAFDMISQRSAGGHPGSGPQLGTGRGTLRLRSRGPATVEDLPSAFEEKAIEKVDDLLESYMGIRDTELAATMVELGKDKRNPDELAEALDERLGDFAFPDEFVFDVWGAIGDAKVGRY
UniProt P04350: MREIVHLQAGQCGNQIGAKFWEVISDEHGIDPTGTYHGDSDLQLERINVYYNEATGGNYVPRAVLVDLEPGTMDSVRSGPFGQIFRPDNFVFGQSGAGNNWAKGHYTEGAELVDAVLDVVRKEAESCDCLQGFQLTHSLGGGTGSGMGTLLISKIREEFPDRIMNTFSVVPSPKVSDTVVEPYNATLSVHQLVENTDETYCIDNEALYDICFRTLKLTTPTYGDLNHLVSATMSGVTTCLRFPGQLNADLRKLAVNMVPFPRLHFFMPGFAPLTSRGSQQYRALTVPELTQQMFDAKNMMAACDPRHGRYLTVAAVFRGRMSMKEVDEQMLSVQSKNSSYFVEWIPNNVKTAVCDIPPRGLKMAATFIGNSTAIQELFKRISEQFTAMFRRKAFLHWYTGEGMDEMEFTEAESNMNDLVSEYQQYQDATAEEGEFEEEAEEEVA
UniProt Q5UIP0: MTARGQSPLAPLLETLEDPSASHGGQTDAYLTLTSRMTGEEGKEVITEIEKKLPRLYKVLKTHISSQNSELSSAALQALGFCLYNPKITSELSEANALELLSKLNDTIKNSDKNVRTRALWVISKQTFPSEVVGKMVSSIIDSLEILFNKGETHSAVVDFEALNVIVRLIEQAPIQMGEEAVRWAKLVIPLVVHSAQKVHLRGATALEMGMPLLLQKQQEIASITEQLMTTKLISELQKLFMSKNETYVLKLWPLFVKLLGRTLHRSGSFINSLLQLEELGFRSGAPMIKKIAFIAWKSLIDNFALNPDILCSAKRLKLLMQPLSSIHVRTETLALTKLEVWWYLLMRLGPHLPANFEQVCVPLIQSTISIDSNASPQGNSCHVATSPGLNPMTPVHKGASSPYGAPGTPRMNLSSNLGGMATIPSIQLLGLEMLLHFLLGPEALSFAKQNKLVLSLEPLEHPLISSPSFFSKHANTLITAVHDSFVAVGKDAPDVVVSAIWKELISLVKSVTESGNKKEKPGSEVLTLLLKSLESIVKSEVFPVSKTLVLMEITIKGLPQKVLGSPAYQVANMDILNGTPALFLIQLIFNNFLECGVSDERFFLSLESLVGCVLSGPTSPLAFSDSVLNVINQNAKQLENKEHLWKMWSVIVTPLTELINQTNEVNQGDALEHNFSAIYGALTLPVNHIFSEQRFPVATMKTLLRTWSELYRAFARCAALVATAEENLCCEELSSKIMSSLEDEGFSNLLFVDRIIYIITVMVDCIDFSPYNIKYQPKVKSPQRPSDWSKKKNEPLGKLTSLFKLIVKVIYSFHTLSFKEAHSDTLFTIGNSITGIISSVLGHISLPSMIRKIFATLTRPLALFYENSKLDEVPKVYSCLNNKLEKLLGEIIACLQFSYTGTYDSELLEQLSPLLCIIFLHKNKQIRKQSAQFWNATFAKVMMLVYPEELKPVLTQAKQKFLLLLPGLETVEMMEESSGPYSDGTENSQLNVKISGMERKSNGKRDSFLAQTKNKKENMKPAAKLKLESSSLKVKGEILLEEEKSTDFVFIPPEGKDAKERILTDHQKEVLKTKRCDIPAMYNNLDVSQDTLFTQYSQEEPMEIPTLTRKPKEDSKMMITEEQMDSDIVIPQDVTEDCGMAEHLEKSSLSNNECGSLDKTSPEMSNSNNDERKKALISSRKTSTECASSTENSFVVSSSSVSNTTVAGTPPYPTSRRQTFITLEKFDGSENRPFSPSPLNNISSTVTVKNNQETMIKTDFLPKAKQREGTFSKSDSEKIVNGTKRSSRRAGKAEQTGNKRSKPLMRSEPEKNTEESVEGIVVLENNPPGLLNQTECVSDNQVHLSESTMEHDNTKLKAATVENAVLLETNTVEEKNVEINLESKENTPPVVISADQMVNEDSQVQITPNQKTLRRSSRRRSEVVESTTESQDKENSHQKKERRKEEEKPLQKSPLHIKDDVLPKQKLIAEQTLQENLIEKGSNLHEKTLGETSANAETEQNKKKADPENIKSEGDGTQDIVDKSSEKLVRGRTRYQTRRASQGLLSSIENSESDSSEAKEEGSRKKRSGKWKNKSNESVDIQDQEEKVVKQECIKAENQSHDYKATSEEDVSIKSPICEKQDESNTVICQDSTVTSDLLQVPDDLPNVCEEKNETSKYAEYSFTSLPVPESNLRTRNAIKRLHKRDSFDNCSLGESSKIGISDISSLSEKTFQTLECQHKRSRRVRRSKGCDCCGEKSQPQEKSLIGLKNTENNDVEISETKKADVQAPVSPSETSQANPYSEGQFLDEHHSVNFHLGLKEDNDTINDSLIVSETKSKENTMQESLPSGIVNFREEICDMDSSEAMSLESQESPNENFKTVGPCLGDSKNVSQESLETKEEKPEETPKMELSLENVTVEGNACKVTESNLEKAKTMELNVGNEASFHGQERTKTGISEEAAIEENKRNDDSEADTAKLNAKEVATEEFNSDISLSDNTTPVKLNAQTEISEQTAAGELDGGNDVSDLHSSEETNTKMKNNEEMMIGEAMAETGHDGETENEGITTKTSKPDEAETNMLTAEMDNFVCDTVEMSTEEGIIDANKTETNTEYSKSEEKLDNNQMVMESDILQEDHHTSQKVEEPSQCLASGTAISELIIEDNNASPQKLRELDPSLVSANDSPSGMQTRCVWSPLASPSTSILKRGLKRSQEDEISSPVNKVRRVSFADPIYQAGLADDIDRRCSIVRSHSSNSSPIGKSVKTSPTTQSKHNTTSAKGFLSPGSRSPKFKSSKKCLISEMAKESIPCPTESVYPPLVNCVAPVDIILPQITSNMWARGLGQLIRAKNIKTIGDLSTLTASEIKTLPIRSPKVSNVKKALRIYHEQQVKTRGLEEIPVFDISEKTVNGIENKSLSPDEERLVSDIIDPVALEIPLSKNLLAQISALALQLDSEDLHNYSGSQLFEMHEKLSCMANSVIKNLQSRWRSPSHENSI
UniProt Q58FF8: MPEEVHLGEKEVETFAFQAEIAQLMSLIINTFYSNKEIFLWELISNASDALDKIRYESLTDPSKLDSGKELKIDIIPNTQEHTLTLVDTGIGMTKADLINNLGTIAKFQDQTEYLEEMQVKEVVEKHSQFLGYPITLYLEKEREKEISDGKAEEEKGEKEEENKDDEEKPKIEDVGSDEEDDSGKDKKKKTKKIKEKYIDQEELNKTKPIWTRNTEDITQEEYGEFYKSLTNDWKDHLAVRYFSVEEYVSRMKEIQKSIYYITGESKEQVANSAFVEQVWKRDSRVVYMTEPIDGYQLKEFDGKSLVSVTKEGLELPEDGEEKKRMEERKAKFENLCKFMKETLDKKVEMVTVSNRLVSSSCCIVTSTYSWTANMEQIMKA

Assays:
[1] = target: endogenous LRRK2 (Leucine-rich repeat kinase 2) (mouse (endogenous in SN4741 and in mouse ventral midbrain)) (UniProt Q5S006); assay: affinity purification with mass spectrometry; SN4741 cells, endogenous LRRK2 immunoprecipitated; buffer with 0.1% sodium deoxycholate, tryptic digestion directly on beads, LC-MS/MS; only proteins absent in the IgG control counted
[2] = target: endogenous LRRK2 (Leucine-rich repeat kinase 2) (mouse (endogenous in SN4741 and in mouse ventral midbrain)) (UniProt Q5S006); assay: affinity purification with mass spectrometry; SN4741 cells, endogenous LRRK2 immunoprecipitated; NP40 buffer, SDS-PAGE, Coomassie staining, in-gel tryptic digestion, LC-MS/MS; only proteins absent in the IgG control counted
[3] = target: 2xmyc-Lrrk2-WT (Leucine-rich repeat kinase 2, wild type) (human) (UniProt Q5S007); assay: affinity purification with mass spectrometry; HEK293T transiently transfected with human 2xmyc-Lrrk2-WT, lysed in NP40 buffer 24 h post transfection; pull-down with antibodies against C-MYC; SDS-PAGE, silver staining, in-gel tryptic digestion, LC-MS/MS; only proteins absent in the IgG control counted
[4] = target: 2xmyc-Lrrk2-WT (Leucine-rich repeat kinase 2, wild type) (human) (UniProt Q5S007); assay: as above; remark: listed apart in the source

## PDZ domain-containing protein GIPC1 (endogenous, mouse) (from UniProt Q9Z0G0 1-333)
[1]
  binding: binds
[2]
  binding: binds

## Tubulin beta-4A chain (from UniProt P04350 1-444)
[3]
  binding: binds

## Centromere protein F (from UniProt P49454 1-3114)
[3]
  binding: binds

## Telomere-associated protein RIF1 (from UniProt Q5UIP0 1-2472)
[3]
  binding: binds

## Myb-related protein B (from UniProt P10244 1-700)
[3]
  binding: binds

## Putative heat shock protein HSP 90-beta 2 (from UniProt Q58FF8 1-381)
[3]
  binding: binds

## SHROOM-3 (endogenous, HEK293T) (from UniProt Q8TF72 1-1996)
[3]
  binding: binds

B1: BEN domain-containing protein 3 (endogenous, HEK293T) (protein, UniProt Q5T5X7 1-828)
chain: MNSTEFTEDVEEVLKSITVKVETEAEDAALDCSVNSRTSEKHSVDSVLTALQDSSKRKQLVSDGLLDSVPGVKRRRLIPEALLAGMRNRENSSPCQGNGEQAGRGRSLGNVWPGEEEPCNDATTPSYKKPLYGISHKIMEKKNPPSGDLLNVYELFEKANASNSPSSLRLLNEPQKRDCGSTGAGTDNDPNIYFLIQKMFYMLNTLTSNMSQLHSKVDLLSLEVSRIKKQVSPTEMVAKFQPPPEYQLTAAELKQIVDQSLSGGDLACRLLVQLFPELFSDVDFSRGCSACGFAAKRKLESLHLQLIRNYVEVYYPSVKDTAVWQAECLPQLNDFFSRFWAQREMEDSQPSGQVASFFEAEQVDPGHFLDNKDQEEALSLDRSSTIASDHVVDTQDLTEFLDEASSPGEFAVFLLHRLFPELFDHRKLGEQYSCYGDGGKQELDPQRLQIIRNYTEIYFPDMQEEEAWLQQCAQRINDELEGLGLDAGSEGDPPRDDCYDSSSLPDDISVVKVEDSFEGERPGRRSKKIWLVPIDFDKLEIPQPDFEVPGADCLLSKEQLRSIYESSLSIGNFASRLLVHLFPELFTHENLRKQYNCSGSLGKKQLDPSRIKLIRHYVQLLYPRAKNDRVWTLEFVGKLDERCRRRDTEQRRSYQQQRKVHVPGPECRDLTSYAINPERFREEFEGPPLPPERSSKDFCKIPLDELVVPSPDFPVPSPYLLSDKEVREIVQQSLSVGNFAARLLVRLFPELFTAENLRLQYNHSGACNKKQLDPTRLRLIRHYVEAVYPVEKMEEVWHYECIPSIDERCRRPNRKKCDILKKAKKVEK
[4]
  binding: binds

B2: FLOTILLIN-1 (endogenous, HEK293T) (protein, UniProt O75955 1-427)
chain: MFFTCGPNEAMVVSGFCRSPPVMVAGGRVFVLPCIQQIQRISLNTLTLNVKSEKVYTRHGVPISVTGIAQVKIQGQNKEMLAAACQMFLGKTEAEIAHIALETLEGHQRAIMAHMTVEEIYKDRQKFSEQVFKVASSDLVNMGISVVSYTLKDIHDDQDYLHSLGKARTAQVQKDARIGEAEAKRDAGIREAKAKQEKVSAQYLSEIEMAKAQRDYELKKAAYDIEVNTRRAQADLAYQLQVAKTKQQIEEQRVQVQVVERAQQVAVQEQEIARREKELEARVRKPAEAERYKLERLAEAEKSQLIMQAEAEAASVRMRGEAEAFAIGARARAEAEQMAKKAEAFQLYQEAAQLDMLLEKLPQVAEEISGPLTSANKITLVSSGSGTMGAAKVTGEVLDILTRLPESVERLTGVSISQVNHKPLRTA
[4]
  binding: binds

B3: FLOTILLIN-2 (endogenous, HEK293T) (protein, UniProt Q14254 1-428)
chain: MGNCHTVGPNEALVVSGGCCGSDYKQYVFGGWAWAWWCISDTQRISLEIMTLQPRCEDVETAEGVALTVTGVAQVKIMTEKELLAVACEQFLGKNVQDIKNVVLQTLEGHLRSILGTLTVEQIYQDRDQFAKLVREVAAPDVGRMGIEILSFTIKDVYDKVDYLSSLGKTQTAVVQRDADIGVAEAERDAGIREAECKKEMLDVKFMADTKIADSKRAFELQKSAFSEEVNIKTAEAQLAYELQGAREQQKIRQEEIEIEVVQRKKQIAVEAQEILRTDKELIATVRRPAEAEAHRIQQIAEGEKVKQVLLAQAEAEKIRKIGEAEAAVIEAMGKAEAERMKLKAEAYQKYGDAAKMALVLEALPQIAAKIAAPLTKVDEIVVLSGDNSKVTSEVNRLLAELPASVHALTGVDLSKIPLIKKATGVQV
[4]
  binding: binds

B4: PDZ domain-containing protein GIPC1 (endogenous, HEK293T) (protein, UniProt O14908 1-333)
chain: MPLGLGRRKKAPPLVENEEAEPGRGGLGVGEPGPLGGGGSGGPQMGLPPPPPALRPRLVFHTQLAHGSPTGRIEGFTNVKELYGKIAEAFRLPTAEVMFCTLNTHKVDMDKLLGGQIGLEDFIFAHVKGQRKEVEVFKSEDALGLTITDNGAGYAFIKRIKEGSVIDHIHLISVGDMIEAINGQSLLGCRHYEVARLLKELPRGRTFTLKLTEPRKAFDMISQRSAGGRPGSGPQLGTGRGTLRLRSRGPATVEDLPSAFEEKAIEKVDDLLESYMGIRDTELAATMVELGKDKRNPDELAEALDERLGDFAFPDEFVFDVWGAIGDAKVGRY
[4]
  binding: binds

B5: C-Jun-amino-terminal kinase-interacting protein 4 (protein, UniProt O60271 1-1321)
chain: MELEDGVVYQEEPGGSGAVMSERVSGLAGSIYREFERLIGRYDEEVVKELMPLVVAVLENLDSVFAQDQEHQVELELLRDDNEQLITQYEREKALRKHAEEKFIEFEDSQEQEKKDLQTRVESLESQTRQLELKAKNYADQISRLEEREAELKKEYNALHQRHTEMIHNYMEHLERTKLHQLSGSDQLESTAHSRIRKERPISLGIFPLPAGDGLLTPDAQKGGETPGSEQWKFQELSQPRSHTSLKVSNSPEPQKAVEQEDELSDVSQGGSKATTPASTANSDVATIPTDTPLKEENEGFVKVTDAPNKSEISKHIEVQVAQETRNVSTGSAENEEKSEVQAIIESTPELDMDKDLSGYKGSSTPTKGIENKAFDRNTESLFEELSSAGSGLIGDVDEGADLLGMGREVENLILENTQLLETKNALNIVKNDLIAKVDELTCEKDVLQGELEAVKQAKLKLEEKNRELEEELRKARAEAEDARQKAKDDDDSDIPTAQRKRFTRVEMARVLMERNQYKERLMELQEAVRWTEMIRASRENPAMQEKKRSSIWQFFSRLFSSSSNTTKKPEPPVNLKYNAPTSHVTPSVKKRSSTLSQLPGDKSKAFDFLSEETEASLASRREQKREQYRQVKAHVQKEDGRVQAFGWSLPQKYKQVTNGQGENKMKNLPVPVYLRPLDEKDTSMKLWCAVGVNLSGGKTRDGGSVVGASVFYKDVAGLDTEGSKQRSASQSSLDKLDQELKEQQKELKNQEELSSLVWICTSTHSATKVLIIDAVQPGNILDSFTVCNSHVLCIASVPGARETDYPAGEDLSESGQVDKASLCGSMTSNSSAETDSLLGGITVVGCSAEGVTGAATSPSTNGASPVMDKPPEMEAENSEVDENVPTAEEATEATEGNAGSAEDTVDISQTGVYTEHVFTDPLGVQIPEDLSPVYQSSNDSDAYKDQISVLPNEQDLVREEAQKMSSLLPTMWLGAQNGCLYVHSSVAQWRKCLHSIKLKDSILSIVHVKGIVLVALADGTLAIFHRGVDGQWDLSNYHLLDLGRPHHSIRCMTVVHDKVWCGYRNKIYVVQPKAMKIEKSFDAHPRKESQVRQLAWVGDGVWVSIRLDSTLRLYHAHTYQHLQDVDIEPYVSKMLGTGKLGFSFVRITALMVSCNRLWVGTGNGVIISIPLTETNKTSGVPGNRPGSVIRVYGDENSDKVTPGTFIPYCSMAHAQLCFHGHRDAVKFFVAVPGQVISPQSSSSGTDLTGDKAGPSAQEPGSQTPLKSMLVISGGEGYIDFRMGDEGGESELLGEDLPLEPSVTKAERSHLIVWQVMYGNE
[4]
  binding: binds

B6: C-Jun-amino-terminal kinase-interacting protein 3 (endogenous, HEK293T) (protein, UniProt Q9UPT6 1-1336)
chain: MMEIQMDEGGGVVVYQDDYCSGSVMSERVSGLAGSIYREFERLIHCYDEEVVKELMPLVVNVLENLDSVLSENQEHEVELELLREDNEQLLTQYEREKALRRQAEEKFIEFEDALEQEKKELQIQVEHYEFQTRQLELKAKNYADQISRLEERESEMKKEYNALHQRHTEMIQTYVEHIERSKMQQVGGNSQTESSLPGRRKERPTSLNVFPLADGTVRAQIGGKLVPAGDHWHLSDLGQLQSSSSYQCPQDEMSESGQSSAAATPSTTGTKSNTPTSSVPSAAVTPLNESLQPLGDYGVGSKNSKRAREKRDSRNMEVQVTQEMRNVSIGMGSSDEWSDVQDIIDSTPELDMCPETRLDRTGSSPTQGIVNKAFGINTDSLYHELSTAGSEVIGDVDEGADLLGEFSVRDDFFGMGKEVGNLLLENSQLLETKNALNVVKNDLIAKVDQLSGEQEVLRGELEAAKQAKVKLENRIKELEEELKRVKSEAIIARREPKEEAEDVSSYLCTESDKIPMAQRRRFTRVEMARVLMERNQYKERLMELQEAVRWTEMIRASREHPSVQEKKKSTIWQFFSRLFSSSSSPPPAKRPYPSVNIHYKSPTTAGFSQRRNHAMCPISAGSRPLEFFPDDDCTSSARREQKREQYRQVREHVRNDDGRLQACGWSLPAKYKQLSPNGGQEDTRMKNVPVPVYCRPLVEKDPTMKLWCAAGVNLSGWRPNEDDAGNGVKPAPGRDPLTCDREGDGEPKSAHTSPEKKKAKELPEMDATSSRVWILTSTLTTSKVVIIDANQPGTVVDQFTVCNAHVLCISSIPAASDSDYPPGEMFLDSDVNPEDPGADGVLAGITLVGCATRCNVPRSNCSSRGDTPVLDKGQGEVATIANGKVNPSQSTEEATEATEVPDPGPSEPETATLRPGPLTEHVFTDPAPTPSSGPQPGSENGPEPDSSSTRPEPEPSGDPTGAGSSAAPTMWLGAQNGWLYVHSAVANWKKCLHSIKLKDSVLSLVHVKGRVLVALADGTLAIFHRGEDGQWDLSNYHLMDLGHPHHSIRCMAVVYDRVWCGYKNKVHVIQPKTMQIEKSFDAHPRRESQVRQLAWIGDGVWVSIRLDSTLRLYHAHTHQHLQDVDIEPYVSKMLGTGKLGFSFVRITALLVAGSRLWVGTGNGVVISIPLTETVVLHRGQLLGLRANKTSPTSGEGARPGGIIHVYGDDSSDRAASSFIPYCSMAQAQLCFHGHRDAVKFFVSVPGNVLATLNGSVLDSPAEGPGPAAPASEVEGQKLRNVLVLSGGEGYIDFRIGDGEDDETEEGAGDMSQVKPVLSKAERSHIIVWQVSYTPE
[4]
  binding: binds

Like-named read-outs stand apart in the source and are kept apart here. These are yes or no findings as the source states them, for the method shown. Binding seen in cells or lysates may run through a third protein. These calls come from enrichment with a bait or labelling near it, and not all partners need be listed.
